Test results as given in the supplement of paper PMC6418307.
Single values of this set are uncertain.

System: primary mouse cortical neurons
Assay: cell health score (luciferase spike-in reads / total reads per well) (fraction); higher = fewer cellular reads, worse cell health / toxicity
Conditions: treatment time 24 h
[1] = 0.01 µM, sex of neuron culture: Female
[2] = 0.01 µM, sex of neuron culture: Male
[3] = 0.1 µM, sex of neuron culture: Female
[4] = 0.1 µM, sex of neuron culture: Male
[5] = 1 µM, sex of neuron culture: Female
[6] = 1 µM, sex of neuron culture: Male
[7] = 10 µM, sex of neuron culture: Female
[8] = 10 µM, sex of neuron culture: Male

Structure (SMILES): CC(C)(C)C(O)/C(=C/c1ccc(Cl)cc1Cl)n1cncn1 (stereo not given) [Diniconazole]
- cell health score [1]: 0.000526
- cell health score [2]: 0.000624
- cell health score [3]: 0.00102
- cell health score [4]: 0.00105
- cell health score [5]: 0.000703
- cell health score [6]: 0.0004
- cell health score [7]: 0.0008
- cell health score [8]: 0.000713

Structure (SMILES): O=C(O)c1c(Cl)ccc2cc(Cl)cnc12 [Quinclorac]
- cell health score [1]: 0.000612
- cell health score [2]: 0.000534
- cell health score [3]: 0.000758
- cell health score [4]: 0.000817
- cell health score [5]: 0.000763
- cell health score [6]: 0.000751
- cell health score [7]: 0.00108
- cell health score [8]: 0.000493

Structure (SMILES): CCNC(=O)NC(=O)/C(C#N)=N/OC [Cymoxanil]
- cell health score [1]: 0.000649
- cell health score [2]: 0.000732
- cell health score [3]: 0.00086
- cell health score [4]: 0.000834
- cell health score [5]: 0.000903
- cell health score [6]: 0.000683
- cell health score [7]: 0.00112
- cell health score [8]: 0.000655

Structure (SMILES): CCCN(CC)CC1COC2(CCC(C(C)(C)C)CC2)O1 (stereo not given) [Spiroxamine]
- cell health score [1]: 0.000359
- cell health score [2]: 0.00104
- cell health score [3]: 0.00138
- cell health score [4]: 0.000667
- cell health score [5]: 0.000703
- cell health score [6]: 0.000559
- cell health score [7]: 0.000501
- cell health score [8]: 0.00168

Structure (SMILES): NC1=N[C@H](O)[C@H]2[C@H]3O[C@]4(O)O[C@@H]([C@@H](O)[C@@]2(N1)[C@@H]4O)[C@]3(O)CO [Tetrodotoxin (TTX)]
- cell health score [1]: 0.000462
- cell health score [2]: 0.000807
- cell health score [3]: 0.000845
- cell health score [4]: 0.000911
- cell health score [5]: 0.000895
- cell health score [6]: 0.000829
- cell health score [7]: 0.001
- cell health score [8]: 0.000684

Structure (SMILES): Cc1sc2c(c1C)C(c1ccc(Cl)cc1)=N[C@@H](CC(=O)OC(C)(C)C)c1nnc(C)n1-2 (racemic) [(+/-)JQ1]
- cell health score [1]: 0.00064
- cell health score [2]: 0.00098
- cell health score [3]: 0.000937
- cell health score [4]: 0.00104
- cell health score [5]: 0.00117
- cell health score [6]: 0.00153
- cell health score [7]: 0.00167
- cell health score [8]: 0.00144

Structure (SMILES): CSC1=N[C@@](C)(c2ccccc2)C(=O)N1Nc1ccccc1 [Fenamidone]
- cell health score [1]: 0.000628
- cell health score [2]: 0.000817
- cell health score [3]: 0.000671
- cell health score [4]: 0.000856
- cell health score [5]: 0.000987
- cell health score [6]: 0.000382
- cell health score [7]: 0.00244
- cell health score [8]: 0.00184

Structure (SMILES): Clc1ccccc1-c1nnc(-c2ccccc2Cl)nn1 [Clofentezine]
- cell health score [1]: 0.000448
- cell health score [2]: 0.000724
- cell health score [3]: 0.000701
- cell health score [4]: 0.000836
- cell health score [5]: 0.000835
- cell health score [6]: 0.0006
- cell health score [7]: 0.000867
- cell health score [8]: 0.000494

Structure (SMILES): O=C(Nc1ccccc1)Nc1cnns1 [Thidiazuron]
- cell health score [1]: 0.000741
- cell health score [2]: 0.000609
- cell health score [3]: 0.000862
- cell health score [4]: 0.000876
- cell health score [5]: 0.000899
- cell health score [6]: 0.000715
- cell health score [7]: 0.000873
- cell health score [8]: 0.000583

Structure (SMILES): Cc1cc(C2CC2)nc(Nc2ccccc2)n1 [Cyprodinil]
- cell health score [1]: 0.000665
- cell health score [2]: 0.00082
- cell health score [3]: 0.00103
- cell health score [4]: 0.000821
- cell health score [5]: 0.00122
- cell health score [6]: 0.000764
- cell health score [7]: 0.00103
- cell health score [8]: 0.000845
